Measured values taken from paper PMC4915692.
Results are given in words; binding and its absence hold for the method and conditions named. Binding calls can cover weak binding; strength is not graded here.

Columns and labels:
[1] = target: TaGID2-A1 (Triticum aestivum (Chinese Spring)); test: two-hybrid; TSK1 as prey (pGADT7), TaGID2-A1, -B1, -D1 as baits (pGBKT7); yeast AH109; growth on SD/-Leu-Trp-His-Ade with or without 100 μM GA3
[2] = target: TaGID2-B1 (Triticum aestivum (Chinese Spring)); test: as above
[3] = target: TaGID2-D1 (Triticum aestivum (Chinese Spring)) (UniProt A1E0V2); test: as above
[4] = target: TaGID2-A1 (Triticum aestivum (Chinese Spring)); test: two-hybrid; RHT-1s as preys (pGADT7), TaGID2-A1, -B1, -D1 as baits (pGBKT7); yeast AH109; growth on SD/-Leu-Trp-His-Ade (with 20 μg/mL X-α-Gal in Fig 5A) with or without 100 μM GA3
[5] = target: TaGID2-B1 (Triticum aestivum (Chinese Spring)); test: as above
[6] = target: TaGID2-D1 (Triticum aestivum (Chinese Spring)) (UniProt A1E0V2); test: as above

Measured: binding

TSK1 (from UniProt A0A173FEH2 1-175)
binds: [1] | [2] | [3]

B1: RHT-D1a (protein, UniProt Q9ST59 1-623)
chain: MKREYQDAGGSGGGGGGMGSSEDKMMVSAAAGEGEEVDELLAALGYKVRASDMADVAQKLEQLEMAMGMGGVGAGAAPDDSFATHLATDTVHYNPTDLSSWVESMLSELNAPPPPLPPAPQLNASTSSTVTGSGGYFDLPPSVDSSSSIYALRPIPSPAGATAPADLSADSVRDPKRMRTGGSSTSSSSSSSSSLGGGARSSVVEAAPPVAAAANATPALPVVVVDTQEAGIRLVHALLACAEAVQQENLSAAEALVKQIPLLAASQGGAMRKVAAYFGEALARRVFRFRPQPDSSLLDAAFADLLHAHFYESCPYLKFAHFTANQAILEAFAGCRRVHVVDFGIKQGMQWPALLQALALRPGGPPSFRLTGVGPPQPDETDALQQVGWKLAQFAHTIRVDFQYRGLVAATLADLEPFMLQPEGEEDPNEEPEVIAVNSVFEMHRLLAQPGALEKVLGTVRAVRPRIVTVVEQEANHNSGTFLDRFTESLHYYSTMFDSLEGGSSGGGPSEVSSGAAAAPAAAGTDQVMSEVYLGRQICNVVACEGAERTERHETLGQWRNRLGNAGFETVHLGSNAYKQASTLLALFAGGDGYKVEEKEGCLTLGWHTRPLIATSAWRLAGP
binds: [4] | [5] | [6]
